{"source": "PubChem BioAssay AID602196 (INSERM, 2012)", "aim": "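Knock-downs that protect lung cancer cells from cisplatin or sensitise them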", "cell system": "human A549 lung cancer cells", "reagents": "siRNA pair against human genes", "time to read-out": "48 h transfection before cisplatin; time from cisplatin to read-out not stated", "conditions": "cisplatin at a dose killing half of control-siRNA cells; exact dose and duration not given", "measurement": "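Shift in cisplatin death relative to control siRNA, from -50 (all cells die) to +50 (no cells die); siRNAs harmful on their own scored 0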", "scale": "two-siRNA summed score (-2 to +2): higher = both siRNAs protect from cisplatin killing; -2 means both sensitise; mean protection from cisplatin (shift in death): higher = protection from cisplatin killing", "call rule": "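siRNAs harmful alone (LDH or WST-1) get 0; others get +1 for less and -1 for more cisplatin killing; genes are active when the two siRNAs give the same sign, summing to ±2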", "calls": "active = both siRNAs shift cisplatin killing the same way; inactive = no consistent shift, or siRNA harmful alone", "note": "Shown is an unselected part of about 23,000 deposited reagents. 455 of all reagents (2%) count as active. 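Active includes both protection and sensitisation; some change values fall well beyond the stated -50 to +50 range.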 Reagents against one gene are numbered here. Not all columns of the deposit are shown. No sequences are given here. Not stated in the record: the amount of reagent."}
{"gene": "LOC387756", "reagent": 1, "two-siRNA summed score (-2 to +2)": 0, "mean protection from cisplatin (shift in death) (%)": 8.6, "activity call": "inactive"}
{"gene": "MMS22L", "reagent": 1, "two-siRNA summed score (-2 to +2)": 0, "mean protection from cisplatin (shift in death) (%)": 7.8, "activity call": "inactive"}
{"gene": "LINC01148", "reagent": 1, "two-siRNA summed score (-2 to +2)": 0, "mean protection from cisplatin (shift in death) (%)": 3.2, "activity call": "inactive"}
{"gene": "GFM1", "reagent": 1, "two-siRNA summed score (-2 to +2)": 0, "mean protection from cisplatin (shift in death) (%)": 10.2, "activity call": "inactive"}
{"gene": "TAF4B", "reagent": 1, "two-siRNA summed score (-2 to +2)": 1, "mean protection from cisplatin (shift in death) (%)": 1.7, "activity call": "inactive"}
{"gene": "EHHADH", "reagent": 1, "two-siRNA summed score (-2 to +2)": 1, "mean protection from cisplatin (shift in death) (%)": 9.5, "activity call": "inactive"}
{"gene": "FLJ00310", "reagent": 1, "two-siRNA summed score (-2 to +2)": 0, "mean protection from cisplatin (shift in death) (%)": 9.7, "activity call": "inactive"}
{"gene": "LOC400492", "reagent": 1, "two-siRNA summed score (-2 to +2)": 0, "mean protection from cisplatin (shift in death) (%)": 4.3, "activity call": "inactive"}
{"gene": "TLCD3A", "reagent": 1, "two-siRNA summed score (-2 to +2)": 1, "mean protection from cisplatin (shift in death) (%)": 12.7, "activity call": "inactive"}
{"gene": "PRDM10", "reagent": 1, "two-siRNA summed score (-2 to +2)": 0, "mean protection from cisplatin (shift in death) (%)": 15.6, "activity call": "inactive"}
{"gene": "DDX39A", "reagent": 1, "two-siRNA summed score (-2 to +2)": -1, "mean protection from cisplatin (shift in death) (%)": -15, "activity call": "inactive"}
{"gene": "TARBP1", "reagent": 1, "two-siRNA summed score (-2 to +2)": 0, "mean protection from cisplatin (shift in death) (%)": 7, "activity call": "inactive"}
{"gene": "CD27", "reagent": 1, "two-siRNA summed score (-2 to +2)": -1, "mean protection from cisplatin (shift in death) (%)": -7, "activity call": "inactive"}
{"gene": "TBP", "reagent": 1, "two-siRNA summed score (-2 to +2)": -1, "mean protection from cisplatin (shift in death) (%)": -12.1, "activity call": "inactive"}
{"gene": "LOC442589", "reagent": 1, "two-siRNA summed score (-2 to +2)": 0, "mean protection from cisplatin (shift in death) (%)": 2.3, "activity call": "inactive"}
{"gene": "AFMID", "reagent": 1, "two-siRNA summed score (-2 to +2)": 0, "mean protection from cisplatin (shift in death) (%)": -2, "activity call": "inactive"}
{"gene": "ATP6V1D", "reagent": 1, "two-siRNA summed score (-2 to +2)": -1, "mean protection from cisplatin (shift in death) (%)": -4, "activity call": "inactive"}
{"gene": "HOXD12", "reagent": 1, "two-siRNA summed score (-2 to +2)": 0, "mean protection from cisplatin (shift in death) (%)": -1.3, "activity call": "inactive"}
{"gene": "RORC", "reagent": 1, "two-siRNA summed score (-2 to +2)": 0, "mean protection from cisplatin (shift in death) (%)": -5.5, "activity call": "inactive"}
{"gene": "PCDH15", "reagent": 1, "two-siRNA summed score (-2 to +2)": 0, "mean protection from cisplatin (shift in death) (%)": 1.2, "activity call": "inactive"}
{"gene": "PAGE5", "reagent": 1, "two-siRNA summed score (-2 to +2)": 0, "mean protection from cisplatin (shift in death) (%)": 1.3, "activity call": "inactive"}
{"gene": "PAGE5", "reagent": 2, "two-siRNA summed score (-2 to +2)": 0, "mean protection from cisplatin (shift in death) (%)": 4.7, "activity call": "inactive"}
{"gene": "GALNT5", "reagent": 1, "two-siRNA summed score (-2 to +2)": 1, "mean protection from cisplatin (shift in death) (%)": 11.8, "activity call": "inactive"}
{"gene": "PRKN", "reagent": 1, "two-siRNA summed score (-2 to +2)": 0, "mean protection from cisplatin (shift in death) (%)": 8.5, "activity call": "inactive"}
{"gene": "NDUFAF4", "reagent": 1, "two-siRNA summed score (-2 to +2)": 0, "mean protection from cisplatin (shift in death) (%)": 12.7, "activity call": "inactive"}
{"gene": "OXSM", "reagent": 1, "two-siRNA summed score (-2 to +2)": 0, "mean protection from cisplatin (shift in death) (%)": -3.6, "activity call": "inactive"}
{"gene": "MRPL3", "reagent": 1, "two-siRNA summed score (-2 to +2)": 0, "mean protection from cisplatin (shift in death) (%)": -9.2, "activity call": "inactive"}
{"gene": "ADCYAP1R1", "reagent": 1, "two-siRNA summed score (-2 to +2)": 1, "mean protection from cisplatin (shift in death) (%)": 10.2, "activity call": "inactive"}
{"gene": "LOC441169", "reagent": 1, "two-siRNA summed score (-2 to +2)": 1, "mean protection from cisplatin (shift in death) (%)": 9.1, "activity call": "inactive"}
{"gene": "LOC283389", "reagent": 1, "two-siRNA summed score (-2 to +2)": 1, "mean protection from cisplatin (shift in death) (%)": 24.7, "activity call": "inactive"}
{"gene": "LINC01553", "reagent": 1, "two-siRNA summed score (-2 to +2)": 0, "mean protection from cisplatin (shift in death) (%)": 13.5, "activity call": "inactive"}

Ordered by “mean protection from cisplatin (shift in death) (%)” (lowest first): some entries from above.
{"gene": "LOC400492", "reagent": 1, "two-siRNA summed score (-2 to +2)": 0, "mean protection from cisplatin (shift in death) (%)": 4.3, "activity call": "inactive"}
{"gene": "FLJ00310", "reagent": 1, "two-siRNA summed score (-2 to +2)": 0, "mean protection from cisplatin (shift in death) (%)": 9.7, "activity call": "inactive"}
